Measurements as given in publication PMC6482433.
These are yes or no findings as the source states them, for the method shown. Binding can be weak; no strength is given. For part of these data: Tags and fused reporters may be left off the sequences shown. For part of these data: Binding seen in cells or lysates may run through a third protein. Each block holds one binder with its values, some of them ahead of it.

Legend:
[1] = target: 3XFLAG-epitope-tagged RBM7 (RNA-binding motif protein 7); assay: co-IP; anti-FLAG M2 affinity gel on whole-cell extracts of HEK293 Flp-In T-REx cells expressing the 3XFLAG-tagged bait (tetracycline 16 h); buffer C (20 mM Tris-HCl, 0.5% NP-40, 150 mM NaCl, 1.5 mM MgCl2, 10 mM KCl, 10% glycerol, 0.5 mM EDTA, pH 7.9), 4 h at 4°C; cells exposed to DMSO or 10 μM 4-NQO (2 h unless noted), in some panels RBM7 siRNA or washout; western blot
[2] = target: mRNP1 mutant maltose-binding protein (MBP)-tagged RBM7; assay: pull-down; MBP pull-down: 10 μg MBP or MBP-RBM7 with 25 μg prey protein in 100 μL binding buffer (20 mM HEPES pH 7.6, 150 mM NaCl, 1 mM TCEP), amylose beads, 2 h at 4°C, eluted with 30 mM maltose; Coomassie-stained gels; both purified
[3] = target: maltose-binding protein (MBP)-tagged RBM7; assay: as above

binding [1]: binds
B1: MePCE (7SK γ-methylphosphate capping enzyme), endogenous (protein, UniProt Q7L2J0 1-689)
chain: MIEMAAEKEPFLVPAPPPPLKDESGGGGGPTVPPHQEAASGELRGGTERGPGRCAPSAGSPAAAVGRESPGAAATSSSGPQAQQHRGGGPQAQSHGEARLSDPPGRAAPPDVGEERRGGGGTELGPPAPPRPRNGYQPHRPPGGGGGKRRNSCNVGGGGGGFKHPAFKRRRRVNSDCDSVLPSNFLLGGNIFDPLNLNSLLDEEVSRTLNAETPKSSPLPAKGRDPVEILIPKDITDPLSLNTCTDEGHVVLASPLKTGRKRHRHRGQHHQQQQAAGGSESHPVPPTAPLTPLLHGEGASQQPRHRGQNRDAPQPYELNTAINCRDEVVSPLPSALQGPSGSLSAPPAASVISAPPSSSSRHRKRRRTSSKSEAGARGGGQGSKEKGRGSWGGRHHHHHPLPAAGFKKQQRKFQYGNYCKYYGYRNPSCEDGRLRVLKPEWFRGRDVLDLGCNVGHLTLSIACKWGPSRMVGLDIDSRLIHSARQNIRHYLSEELRLPPQTLEGDPGAEGEEGTTTVRKRSCFPASLTASRGPIAAPQVPLDGADTSVFPNNVVFVTGNYVLDRDDLVEAQTPEYDVVLCLSLTKWVHLNWGDEGLKRMFRRIYRHLRPGGILVLEPQPWSSYGKRKTLTETIYKNYYRIQLKPEQFSSYLTSPDVGFSSYELVATPHNTSKGFQRPVYLFHKARSPSH

binding [1]: binds
B2: LARP7, endogenous (protein, UniProt Q4G0J3 1-582)
chain: METESGNQEKVMEEESTEKKKEVEKKKRSRVKQVLADIAKQVDFWFGDANLHKDRFLREQIEKSRDGYVDISLLVSFNKMKKLTTDGKLIARALRSSAVVELDLEGTRIRRKKPLGERPKDEDERTVYVELLPKNVNHSWIERVFGKCGNVVYISIPHYKSTGDPKGFAFVEFETKEQAAKAIEFLNNPPEEAPRKPGIFPKTVKNKPIPALRVVEEKKKKKKKKGRMKKEDNIQAKEENMDTSNTSISKMKRSRPTSEGSDIESTEPQKQCSKKKKKRDRVEASSLPEVRTGKRKRSSSEDAESLAPRSKVKKIIQKDIIKEASEASKENRDIEISTEEEKDTGDLKDSSLLKTKRKHKKKHKERHKMGEEVIPLRVLSKSEWMDLKKEYLALQKASMASLKKTISQIKSESEMETDSGVPQNTGMKNEKTANREECRTQEKVNATGPQFVSGVIVKIISTEPLPGRKQVRDTLAAISEVLYVDLLEGDTECHARFKTPEDAQAVINAYTEINKKHCWKLEILSGDHEQRYWQKILVDRQAKLNQPREKKRGTEKLITKAEKIRLAKTQQASKHIRFSEYD

binding [2]: binds
binding [3]: binds
B3: GST-tagged LARP7 (protein, UniProt Q4G0J3 1-582)
chain: B2 chain

binding [2]: binds
binding [3]: binds
B4: GST-tagged catalytic domain of MePCE (cMePCE; residues 400-689) (domain or fragment, UniProt Q7L2J0 400-689)
chain: PLPAAGFKKQQRKFQYGNYCKYYGYRNPSCEDGRLRVLKPEWFRGRDVLDLGCNVGHLTLSIACKWGPSRMVGLDIDSRLIHSARQNIRHYLSEELRLPPQTLEGDPGAEGEEGTTTVRKRSCFPASLTASRGPIAAPQVPLDGADTSVFPNNVVFVTGNYVLDRDDLVEAQTPEYDVVLCLSLTKWVHLNWGDEGLKRMFRRIYRHLRPGGILVLEPQPWSSYGKRKTLTETIYKNYYRIQLKPEQFSSYLTSPDVGFSSYELVATPHNTSKGFQRPVYLFHKARSPSH
